Data published in paper PMC2948513 (PLoS ONE, 2010).
Results are given in words; binding and its absence hold for the method and conditions named. Some binding calls cover weakened binding; strength is not graded here.

The chains behind the UniProt entries cited, without tags or fusion partners. Where a name states a change or a piece, a line headed by the entry shows the natural chain unless it says otherwise. Residues count along the entry.
UniProt P15311, residues 1-310: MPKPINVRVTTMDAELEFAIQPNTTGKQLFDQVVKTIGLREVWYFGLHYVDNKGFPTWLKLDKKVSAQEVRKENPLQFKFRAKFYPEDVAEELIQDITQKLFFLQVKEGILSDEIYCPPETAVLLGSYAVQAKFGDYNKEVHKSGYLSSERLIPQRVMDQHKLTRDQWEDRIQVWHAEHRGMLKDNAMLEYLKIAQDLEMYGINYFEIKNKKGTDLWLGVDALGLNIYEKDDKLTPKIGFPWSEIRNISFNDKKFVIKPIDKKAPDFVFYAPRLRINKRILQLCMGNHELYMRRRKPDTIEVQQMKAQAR
UniProt P68400: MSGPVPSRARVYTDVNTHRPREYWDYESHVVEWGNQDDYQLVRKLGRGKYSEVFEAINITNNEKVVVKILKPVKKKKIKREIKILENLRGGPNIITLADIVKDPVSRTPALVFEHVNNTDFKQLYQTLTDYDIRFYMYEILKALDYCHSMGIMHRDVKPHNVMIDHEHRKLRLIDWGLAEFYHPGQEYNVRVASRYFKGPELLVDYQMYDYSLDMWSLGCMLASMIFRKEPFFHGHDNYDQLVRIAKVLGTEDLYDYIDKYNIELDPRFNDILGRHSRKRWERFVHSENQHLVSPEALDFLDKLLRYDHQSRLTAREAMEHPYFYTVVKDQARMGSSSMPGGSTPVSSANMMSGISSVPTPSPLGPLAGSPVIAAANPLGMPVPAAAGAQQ

What was measured:
[1] = target: T1, synthetic biotin-labeled peptide representing the N-terminal cytoplasmic domain (aa 2-23) of human NEP with serine 6 phosphorylated (human) (UniProt P08473); assay: pull-down; biotin-labeled NEP NT peptides coupled to Streptavidin-agarose beads, incubated with GST PTEN-CT (2 µM), MBP Ezrin-NT (100 nM) or CK2 (30 nM) in 10 mM Tris/HCl pH 7.4, 150 mM NaCl, 0.4% Igepal for 2 hrs; bound proteins detected by Western immunoblotting; both purified
T1 sequence (peptide, phosphoserine at 6; biotin on a C-terminal lysine): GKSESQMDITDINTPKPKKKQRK

[2] = target: T2, synthetic biotin-labeled peptide representing the N-terminal cytoplasmic domain (aa 2-23) of human NEP, non-phosphorylated (human) (UniProt P08473); assay: as above
T2 sequence (peptide, biotin on a C-terminal lysine): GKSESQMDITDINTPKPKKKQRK

## fusion protein of the maltose binding protein (MBP) and the N-terminus of Ezrin (amino acids 1-310) (from UniProt P15311 1-310) (domain or fragment)
[1]
  binding: binds

## recombinant protein kinase CK2 (alpha and beta subunit; New England Biolabs) (from UniProt P68400 1-391; P67870 1-215) (complex)
[2]
  binding: binds
